In patent US20250289789A1, “REVERSIBLE LYSINE COVALENT MODIFIERS OF CDK2 AND USES THEREOF” (Terremoto Biosciences, Inc., priority 2023, published 2025):
The structures given here were assigned with low confidence; some may be wrong.

Protein sequences, listed by entry. Tags and fused reporters are not part of them.
UniProt P11802, whole entry: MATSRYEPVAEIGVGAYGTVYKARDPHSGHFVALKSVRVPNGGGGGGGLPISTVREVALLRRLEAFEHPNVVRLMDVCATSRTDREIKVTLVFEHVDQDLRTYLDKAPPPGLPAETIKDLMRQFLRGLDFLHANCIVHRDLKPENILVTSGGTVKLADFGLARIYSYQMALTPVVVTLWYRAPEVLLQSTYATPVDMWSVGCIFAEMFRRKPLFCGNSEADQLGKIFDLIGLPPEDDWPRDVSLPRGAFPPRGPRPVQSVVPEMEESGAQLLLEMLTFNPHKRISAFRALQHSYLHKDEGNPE
UniProt P24385, whole entry partner: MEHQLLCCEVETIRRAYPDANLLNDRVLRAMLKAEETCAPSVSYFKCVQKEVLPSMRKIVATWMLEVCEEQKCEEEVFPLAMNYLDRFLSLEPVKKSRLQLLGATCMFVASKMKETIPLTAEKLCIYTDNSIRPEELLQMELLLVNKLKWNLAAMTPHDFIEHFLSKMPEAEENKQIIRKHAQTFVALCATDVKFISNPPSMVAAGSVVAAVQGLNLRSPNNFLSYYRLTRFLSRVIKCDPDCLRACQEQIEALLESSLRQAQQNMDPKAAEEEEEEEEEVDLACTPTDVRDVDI

What was measured:
[1] = target: CDK4-NanoLuc fusion with CCND1 in 293T or 293 cells (Homo sapiens, UniProt P11802); assay: NanoBRET Target Engagement (TE) Intracellular Kinase Assay, CDK4/CCND1; conditions: read-out: NanoBRET-CDK4/D1 IC50, 2-hour incubation
[2] = target: CDK2-NanoLuc fusion with CCNE1 in 293T or 293 cells (Homo sapiens, UniProt P24941); assay: NanoBRET Target Engagement (TE) Intracellular Kinase Assay, CDK2/CCNE1; conditions: read-out: NanoBRET-CDK2/E1 IC50, 2-hour incubation
[3] = test system: Phospho-Rb Ser807/811 in OVCAR3 cells; assay: OVCAR3 Phospho-Rb Ser807/811 HTRF assay; conditions: read-out: pRb-OVCAR3 IC50, 1 hour incubation

SMILES | IC50 [1] [nM] | IC50 [2] [nM] | IC50 [3] [nM]
COc1cc(O)c(C=O)c(OCC(=O)Nc2cc([C@H]3CC[C@@H](OC(=O)N4CCCN4)C3)[nH]n2)c1 | > 10000 | 7.53 | 94.7
COc1cc(O)c(C=O)c(CCC(=O)Nc2cc([C@H]3CC[C@@H](OC(=O)N4C5COCC4C5)C3)[nH]n2)c1 | 2890 | 17.1 | 295
